These are yes or no findings as the source states them, for the method shown. In cells and extracts the contact can be indirect. Some results given as binding are weak or reduced against the parent protein; the word gives no strength.

Sequences of proteins named here, by UniProt entry; tags and fusion partners are left off.
UniProt Q9UPY5: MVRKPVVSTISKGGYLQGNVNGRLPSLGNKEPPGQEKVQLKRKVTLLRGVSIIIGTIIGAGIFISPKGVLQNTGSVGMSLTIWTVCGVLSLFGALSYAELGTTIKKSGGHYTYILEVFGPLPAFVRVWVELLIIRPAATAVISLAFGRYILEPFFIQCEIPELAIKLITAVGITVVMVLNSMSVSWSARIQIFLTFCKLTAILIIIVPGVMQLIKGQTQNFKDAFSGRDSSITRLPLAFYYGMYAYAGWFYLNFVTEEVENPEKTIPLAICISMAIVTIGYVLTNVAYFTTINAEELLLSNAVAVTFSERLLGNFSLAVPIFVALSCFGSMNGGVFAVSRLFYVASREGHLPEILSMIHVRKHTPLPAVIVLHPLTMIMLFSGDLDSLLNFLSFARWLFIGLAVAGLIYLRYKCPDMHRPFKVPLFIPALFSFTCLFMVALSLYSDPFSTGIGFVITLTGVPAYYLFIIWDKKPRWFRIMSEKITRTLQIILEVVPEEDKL
UniProt P19474: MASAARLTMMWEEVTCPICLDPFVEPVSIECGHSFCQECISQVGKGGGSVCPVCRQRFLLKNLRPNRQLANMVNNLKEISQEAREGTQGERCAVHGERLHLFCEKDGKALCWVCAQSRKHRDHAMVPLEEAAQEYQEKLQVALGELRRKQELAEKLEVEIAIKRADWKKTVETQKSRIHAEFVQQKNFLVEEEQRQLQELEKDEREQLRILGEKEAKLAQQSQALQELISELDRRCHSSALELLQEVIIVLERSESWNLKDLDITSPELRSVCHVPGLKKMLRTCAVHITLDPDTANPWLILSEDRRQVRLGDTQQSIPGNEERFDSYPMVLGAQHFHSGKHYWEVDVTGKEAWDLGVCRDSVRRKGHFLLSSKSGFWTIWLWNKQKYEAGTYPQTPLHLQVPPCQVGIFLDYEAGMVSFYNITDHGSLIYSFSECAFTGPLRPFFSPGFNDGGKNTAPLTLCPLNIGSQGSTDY

The target in test [1] is SLC7A11 construct of the BRET assay (UniProt Q9UPY5). Nature of the test: FRET or BRET; Bioluminescence Resonance Energy Transfer (BRET) assay, normalized relative light units (RLU).
Test [2] has as its target SLC7A11 in PC3 and DU145 cells (human (endogenous in PC3 and DU145)) (UniProt Q9UPY5). Nature of the test: co-IP; PC3 and DU145 cells; immunoprecipitation with anti-Flag, anti-HA or control IgG antibodies, Western blotting for SLC7A11, CCDC7_(19-13) and TRIM21. In general terms: Immunoblotting shows a protein as a band on a membrane.
For test [3] the target is unchanged. Nature of the test: co-IP; PC3 and DU145 cells; SLC7A11 immunoprecipitated and TRIM21 detected by Western blotting, and the reverse.
Test [4] concerns the target SLC7A11 used in the GST pull-down of Fig. 8C (UniProt Q9UPY5). Nature of the test: pull-down; GST pull-down of TRIM21 and SLC7A11 with CCDC7_(19-13) or empty vector (EV) as control.

Regarding “TRIM21 construct of the BRET assay (from UniProt P19474 1-475) (enzyme)”, in test [1], the binding entry is “binds”.
On to “TRIM21 in PC3 and DU145 cells (from UniProt P19474 1-475) (enzyme)”, for which the binding result in test [2] and in test [3] was “binds” throughout.
With “TRIM21 used in the GST pull-down of Fig. 8C (from UniProt P19474 1-475) (enzyme)”, in test [4], the binding entry is reported as “binds”.
